This is an account of results in patent US20190262327A1, “COMBINATION OF A BACE INHIBITOR AND AN ANTIBODY OR ANTIGEN-BINDING FRAGMENT FOR THE TREATMENT OF A DISORDER ASSOCIATED WITH THE ACCUMULATION OF AMYLOID BETA” (ASTRAZENECA AB, priority 2016, published 2019).

Amino acid sequences for entries named in this document (tags omitted). Residues count along the entry.
UniProt P05067, residues 672-713: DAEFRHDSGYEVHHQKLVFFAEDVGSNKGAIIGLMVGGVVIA

No constants are given. Whether binding was seen depends on the method and setting. Some results given as binding are weak or reduced against the parent protein; the word gives no strength.

For experiment [1], the target named is native Amyloid beta in plaques on human Alzheimer's Disease brain sections (human) (UniProt P05067). Kind of experiment: in vitro immunohistochemistry on human AD brain sections.
The target is the same in experiment [2]. Kind of experiment: in vitro immunohistochemistry on brain sections; diffuse and CAA plaques.

B1: Abet0380-GL (germlined) IgG1-TM (antibody, V domains shown)
VH: EVQLLESGGGLVQPGGSLRLSCAASMGNFNYQTMWWVRQAPGKGLEWVSVIGKTNENIAYADSVKGRFTISRDNSKNTLYLQMNSLRAEDTAVYYCAREWMDHSRPYYYYGMDVWGQGTLVTVSS
VL: SYELTQPPSVSVSPGQTASITCSGHNLEDKFASWYQQKPGQSPVLVIYRDDKRPSGIPERFSASNSGHTATLTISGTQAMDEADYYCSSQDTVTRVFGGGTKLTVL
With B1, the binding entry in experiment [1] and in experiment [2] was “binds” in each case.
